Measurements reported in PubChem BioAssay AID1159584 (Peter MacCallum Cancer Centre, 2016).

Aim: 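Genes whose loss is lethal only together with E-cadherin loss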 (primary screen)
System: human MCF10A breast epithelial cells, parental and CDH1-null
Reagent: siRNA against human genes
Measured: 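Cell viability by CellTiter-Glo ATP luminescence, each line scaled to the mean of mock wells across plates, then CDH1-null over parental ratio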
Reading the numbers: CDH1-null / parental viability ratio: higher = CDH1-null cells survive relatively better than parental; CDH1-null viability vs mock: higher = more viable CDH1-null cells; parental viability vs mock: higher = more viable parental cells
Shown is an unselected part of about 18,000 reagents tested. The record does not give: the amount of reagent, the time to read-out.

no.	gene	CDH1-null / parental viability ratio	CDH1-null viability vs mock (fraction of mock)	parental viability vs mock (fraction of mock)
1	CDR2L	0.9	0.7	0.78
2	MTERF1	0.65	0.55	0.84
3	PSMB6	1.42	0.44	0.31
4	AIRIM	1.4	0.59	0.42
5	KRT39	1.01	0.79	0.78
6	SLC16A3	0.62	0.4	0.64
7	TCEA1	0.95	0.89	0.94
8	TMEM263	0.76	0.64	0.84
9	TBC1D22B	1.02	0.94	0.92
10	ZNF606	0.94	1.05	1.12
11	GUCA2A	1.22	1.05	0.86
12	EEF1AKMT3	1.1	0.77	0.7
13	ISM2	1.03	0.37	0.36
14	RBBP4	1.02	0.84	0.82
15	PTHLH	1.56	0.5	0.32
16	VRTN	0.98	0.65	0.66
17	GPR20	1.37	0.85	0.62
18	DHX30	1	0.88	0.88
19	COX14	1.34	0.91	0.68
20	C2	1.27	0.65	0.51
21	HOXA5	1	0.66	0.66
22	ARHGEF4	1.42	0.51	0.36
23	HOXD4	1.05	0.82	0.78
24	ITGB8	0.52	0.3	0.58
25	PRDM6	1.2	1.1	0.92
26	RHCE	0.93	0.78	0.84
27	SRGAP3	0.85	0.78	0.92
28	GABBR2	0.7	0.57	0.82
29	RGS19	1.01	1.1	1.09
30	SAT1	0.85	0.71	0.84
31	SELENOM	1.25	1.01	0.81
32	ZBTB4	1.06	0.68	0.64
33	BCL7B	1.64	1.05	0.64
34	NAGK	1.12	0.86	0.77
35	RAB5IF	1.43	0.66	0.46
36	PROP1	0.97	0.74	0.76
37	OTUD6B	1.37	0.48	0.35
38	HYKK	1.04	0.56	0.54
39	ATP7B	1.23	1.16	0.94
40	FPR1	1.42	1.11	0.78
41	SLC25A17	1.46	0.6	0.41
42	PBDC1	0.98	0.92	0.94
43	VCY	1.19	1.02	0.86
44	NPRL3	1.14	0.72	0.63
45	OR8U3	0.97	0.76	0.78
46	CHRNG	1.1	0.86	0.78
47	TMEM175	1.34	0.99	0.74
48	RAD51AP1	1.1	1	0.91
49	PUM2	1.02	0.96	0.94
50	CDC123	1.05	0.88	0.84
51	THSD4	1	0.7	0.7
52	PIP4P1	1	0.62	0.62
53	ALMS1	1.09	0.38	0.35
54	TPD52L1	1.04	0.76	0.73
55	POLR3A	1.07	0.9	0.84
56	GJD3	0.74	0.58	0.78
57	RBMS3	0.97	0.7	0.72
58	FRRS1L	1.01	0.77	0.76
59	FBF1	1.24	0.77	0.62
60	IFITM5	1.2	1.06	0.88
61	YAF2	0.89	0.91	1.02
62	ZC3H3	0.84	0.57	0.68
63	TTLL12	1	0.4	0.4
64	PEX16	0.49	0.38	0.77
65	GPHA2	1.23	0.86	0.7
66	KIF13A	1	1.1	1.1
67	GMPS	1.14	0.72	0.63
68	OR4C11	0.95	0.8	0.84

Limited to “CDH1-null / parental viability ratio”, for 4 of the entries above:
CDC123: 1.05
THSD4: 1
PIP4P1: 1
ALMS1: 1.09
